Paper PMC10368638
A negative result means that nothing was seen under these conditions. At least one verdict was read from the data and is not stated in words by the source. The exact form of at least one protein or probe is not confirmed.

Tested on: CaHSF8-GST
Assay: EMSA
Settings: EMSA: 20 uL; 5x binding buffer printed as 1 M Tris-HCl pH 7.5, 5 M NaCl, 1 M KCl, 1 M MgCl2, 0.5 M EDTA pH 8.0, 10 mg/mL BSA (apparently stock concentrations); recombinant protein; protein details: GST (pDEST-15); label: Cy5

| Sequence | binding result |
| --- | --- |
| AATGTTTTTTCTAGAATTAC (double strand) [WT CaR1A-6 HSE probe] | binds |
| CGTCATTTCTAGAAGTAGAT (double strand) [WT CaR1B11 HSE probe] | binds |
| ATTACTTTCTAAGATTTATG (double strand) [WT CaR1A HSE probe] | binds |
| CAAAGTTTCTAGAAAGAAAT (double strand) [WT CaR1B12 HSE probe] | binds |
| AATTCTAGAAAAAATTCTAGAAAAAATTCTAGAAAA (double strand) [3x HSE probe] | binds |
| CAATCCGAAAAAAAAAGTGA (double strand) [M CaR1B23 HSE probe] | no binding |
| CGTCATAAAAAAAAGTAGAT (double strand) [M CaR1B11 HSE probe] | no binding |
| AATGTTTTAAAAAAAATTAC (double strand) [M CaR1A-6 HSE probe] | no binding |
| GACCTTTCTAGAAAATCACT (double strand) [WT CaR1B16 HSE probe] | binds |
| ATTACTAAAAAAAATTTATG (double strand) [M CaR1A HSE probe] | no binding |
| CAATCCGTTCTAGAAAGTGA (double strand) [WT CaR1B23 HSE probe] | binds |
| CAAAGTAAAAAAAAAGAAAT (double strand) [M CaR1B12 HSE probe] | no binding |
| GACCTAAAAAAAAAATCACT (double strand) [M CaR1B16 HSE probe] | no binding |

Target: CaKAN3-GST (UniProt A0A2G2Z1N1)
Assay: EMSA
Settings: EMSA: 20 uL; 5x binding buffer printed as 1 M Tris-HCl pH 7.5, 5 M NaCl, 1 M KCl, 1 M MgCl2, 0.5 M EDTA pH 8.0, 10 mg/mL BSA (apparently stock concentrations); recombinant protein; protein details: GST (pDEST-15); label: Cy5

| Sequence | binding result |
| --- | --- |
| TGCGCTCCCTAAAAAAGGAG (double strand) [M CaR1A AACAA probe] | no binding |
| CTCTTTGAAAAAAGAAGGGA (double strand) [M CaR1B23 AACAA probe] | no binding |
| CGGGCTAGAACAAAACCGTC (double strand) [WT CaR1B11 AACAA probe] | binds |
| TGCGCTCCCTAACAAAGGAG (double strand) [WT CaR1A AACAA probe] | binds |
| TGAAAACAATAACAAGATCC (double strand) [WT CaR1B16 AACAA probe] | binds |
| CTCTTTGAAACAAGAAGGGA (double strand) [WT CaR1B23 AACAA probe] | binds |
| CTTTTTGGAACAACTCCAGT (double strand) [WT CaR1A-6 AACAA probe] | binds |
| TGAAAAAAATAAAAAGATCC (double strand) [M CaR1B16 AACAA probe] | no binding |
| GAAAGAAATAAAAAGAGTTA (double strand) [M CaR1B12 AACAA probe] | no binding |
| CTTTTTGGAAAAACTCCAGT (double strand) [M CaR1A-6 AACAA probe] | no binding |
| GAAAGAAATAACAAGAGTTA (double strand) [WT CaR1B12 AACAA probe] | binds |
| CGGGCTAGAAAAAAACCGTC (double strand) [M CaR1B11 AACAA probe] | no binding |
